{"source": "paper PMC6562811", "biological_target": "Twin-StrepII-HA-Beclin 1-WT, Q14457", "test": "affinity purification with mass spectrometry; Twin-StrepII-HA-tagged Beclin 1 baits purified on Strep-Tactin beads from extracts of stable HEK293 lines induced with 2 ug/mL tetracycline for 24 h; cells in full medium or amino-acid starved for 2 h; three biological replicates; SAINTexpress, Bayesian FDR < 0.05, eGFP runs as control", "details": "remark: other sources report otherwise", "note": "These are yes or no findings as the source states them, for the method shown. Binding seen in cells or lysates may run through a third protein. A yes stands for co-enrichment or nearness to the bait. Other partners may have been found. A no says only that the protein was not detected with the bait.", "data": [{"binder": "Ambra 1, Q9C0C7 1-1298 (protein) MKVVPEKNAVRILWGRERGARAMGAQRLLQELVEDKTRWMKWEGKRVELPDSPRSTFLLAFSPDRTLLASTHVNHNIYITEVKTGKCVHSLIGHRRTPWCVTFHPTISGLIASGCLDGEVRIWDLHGGSESWFTDSNNAIASLAFHPTAQLLLIATANEIHFWDWSRREPFAVVKTASEMERVRLVRFDPLGHYLLTAIVNPSNQQGDDEPEIPIDGTELSHYRQRALLQSQPVRRTPLLHNFLHMLSSRSSGIQVGEQSTVQDSATPSPPPPPPQPSTERPRTSAYIRLRQRVSYPTAECCQHLGILCLCSRCSGTRVPSLLPHQDSVPPASARATTPSFSFVQTEPFHPPEQASSTQQDQGLLNRPSAFSTVQSSTAGNTLRNLSLGPTRRSLGGPLSSHPSRYHREIAPGLTGSEWTRTVLSLNSRSEAESMPPPRTSASSVSLLSVLRQQEGGSQASVYTSATEGRGFPASGLATESDGGNGSSQNNSGSIRHELQCDLRRFFLEYDRLQELDQSLSGEAPQTQQAQEMLNNNIESERPGPSHQPTPHSSENNSNLSRGHLNRCRACHNLLTFNNDTLRWERTTPNYSSGEASSSWQVPSSFESVPSSGSQLPPLERTEGQTPSSSRLELSSSASPQEERTVGVAFNQETGHWERIYTQSSRSGTVSQEALHQDMPEESSEEDSLRRRLLESSLISLSRYDGAGSREHPIYPDPARLSPAAYYAQRMIQYLSRRDSIRQRSMRYQQNRLRSSTSSSSSDNQGPSVEGTDLEFEDFEDNGDRSRHRAPRNARMSAPSLGRFVPRRFLLPEYLPYAGIFHERGQPGLATHSSVNRVLAGAVIGDGQSAVASNIANTTYRLQWWDFTKFDLPEISNASVNVLVQNCKIYNDASCDISADGQLLAAFIPSSQRGFPDEGILAVYSLAPHNLGEMLYTKRFGPNAISVSLSPMGRYVMVGLASRRILLHPSTEHMVAQVFRLQQAHGGETSMRRVFNVLYPMPADQRRHVSINSARWLPEPGLGLAYGTNKGDLVICRPEALNSGVEYYWDQLNETVFTVHSNSRSSERPGTSRATWRTDRDMGLMNAIGLQPRNPATSVTSQGTQTLALQLQNAETQTEREVPEPGTAASGPGEGEGSEYGASGEDALSRIQRLMAEGGMTAVVQREQSTTMASMGGFGNNIIVSHRIHRSSQTGTEPGAAHTSSPQPSTSRGLLPEAGQLAERGLSPRTASWDQPGTPGREPTQPTLPSSSPVPIPVSLPSAEGPTLHCELTNNNHLLDGGSSRGDAAGPRGEPRNR", "values": [{"measurement": "binding", "result": "no binding"}]}]}
